Construct, isoform or probe ends are uncertain for at least one entry. For some of these results: Weaker means in comparison with the reference protein, sequence or condition of that experiment. At least one verdict rests on a figure or table, not on a statement of the authors.
What was measured:
Test in all cases: EMSA
[1] = tested on: sigma70 (RpoD) + RNAP core K74A; conditions: Mg2+, not significantly changed vs WT
[2] = tested on: sigma70 (RpoD) + RNAP core K87A; conditions: Mg2+, not significantly changed vs WT
[3] = tested on: sigma70 (RpoD) + RNAP core K74A-K87A; conditions: Mg2+, not significantly changed vs WT
[4] = tested on: sigma70 (RpoD) + RNAP core 4CS C70S,C72S,C85S,C88S; conditions: Mg2+, not significantly changed vs WT
[5] = tested on: sigma28 (FliA) + RNAP core K87A; conditions: Mg2+, lower RPo, higher RPc ratio
[6] = tested on: sigma28 (FliA) + RNAP core K74A; conditions: Mg2+, lower RPo, higher RPc ratio
[7] = tested on: sigma28 (FliA) + RNAP core K74A-K87A; conditions: Mg2+, lower RPo, higher RPc ratio

Sequence	binding result [1]	binding result [2]	binding result [3]	binding result [4]	binding result [5]	binding result [6]	binding result [7]
CCCGCCGACAGGTTTCCCGACTGGAAAGCGGGCAGTGAGCGCAACGCAATTAATGTGAGTTAGCTCACTCATTAGGCACCCCAGGCTTTACACTTTATGCTTCCGGCTCGTATAATGTGTGGAATTGTGAGCGGATAACAATTTCACACAGGAAACAGCTATGACCATGGGCGCGG (double strand) [lacUV5p]	binds	binds	binds	binds	–	–	–
CCCGCCGTTTTTAATAGCGGGAATAAGGGGCAGAGAAAAGAGTATTTCGGCGACTAACAAAAAATGGCTGTTTTTGAAAAAAATTCTAAAGGTTGTTTTACGACAGACGATAACAGGGTTGACGGCGATTGAGCCGACGGGTGGAAACCCAATACGTAATCAACGACTGGGCGCGG (double strand) [fliCp]	–	–	–	–	binds more weakly	binds more weakly	binds more weakly
